Laboratory results: PubChem BioAssay AID720505 (Drosophila RNAi Screening Center, 2013)
The deposit covers about 20,000 reagents; shown is a random part of those that have a named target and a result. Of all reagents, about 2,100 (10%) were called active. 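Raw plate signals without normalisation; calls rest on control-based scores that were not deposited; replicate 2 separates called from uncalled poorly.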 The numbers tell different reagents against one gene apart. Names joined by + are all predicted targets of the reagent. Reagent sequences are not shown. The record does not give: the amount of reagent, the time to read-out.

- Aim: 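Fly regulators or components of the CRAC channel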 (primary screen)
- System: Drosophila S2R+ cells
- Knock-down reagent: long dsRNA against Drosophila genes
- Challenge: thapsigargin (2 µM) in calcium-free buffer to empty internal stores, then 2 mM calcium added back
- Measured: 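Stores emptied by 2 µM thapsigargin without calcium, then 2 mM calcium re-added; fluo-4 fluorescence followed by FLIPR in 384-well plates, per-well averaged endpoint, raw; two screen passes, some wells retested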
- Direction: calcium signal and retest calcium signal: higher = more calcium entry after store depletion
- Call rule: 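Knock-downs counted as hits when calcium entry dropped relative to STIM1 positive and Rho1 negative controls present on each plate; roughly 1500 genes called, with reductions of differing size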
- Meaning of the calls: active = called as lowering calcium entry; inactive = not called

Target gene | reagent | calcium signal, replicate 1 | calcium signal, replicate 2 | retest calcium signal, replicate 1 | retest calcium signal, replicate 2 | activity call
beta4GalT7 (beta-4-galactosyltransferase 7) | 1 | 210 | 176 | – | – | inactive
Cyp4d14 (Cytochrome P450 4d14) | 1 | 85.1 | 141 | – | – | inactive
CG4438 | 1 | 166 | 122 | – | – | inactive
CG32756 | 1 | 95.9 | 160 | – | – | inactive
CG32756 | 2 | 94.9 | 115 | – | – | inactive
Cyp304a1 (Cytochrome P450 304a1) | 1 | 118 | 95.3 | – | – | inactive
CG32812 | 1 | 99.9 | 128 | – | – | inactive
CG15142 | 1 | 80.4 | 127 | – | – | active
CG14929 + CG14930 | 1 | 211 | 237 | – | – | inactive
CG31091 | 1 | 222 | 158 | – | – | inactive
Vamp7 (Vesicle-associated membrane protein 7) | 1 | 125 | 213 | – | – | inactive
Tao | 1 | 116 | 80.3 | 76.9 | 75.3 | inactive
Tao | 2 | 71.1 | 136 | 5096 | 137 | active
Tao | 3 | 144 | 202 | – | – | inactive
G6P (Glucose-6-Phosphatase) | 1 | 141 | 137 | – | – | inactive

Single entries from the list:
Vamp7 (Vesicle-associated membrane protein 7), calcium signal, replicate 1: 125
Under “calcium signal, replicate 2”, Tao #3 has 202
Under “calcium signal, replicate 2”, CG32756 #2 is entered as 115
beta4GalT7 (beta-4-galactosyltransferase 7), activity call → inactive
CG4438, activity call = inactive

Continued.
Target gene | reagent | calcium signal, replicate 1 | calcium signal, replicate 2 | retest calcium signal, replicate 1 | retest calcium signal, replicate 2 | activity call
Gos28 (Golgi SNARE, 28 kDa) | 1 | 189 | 166 | – | – | inactive
Gos28 (Golgi SNARE, 28 kDa) | 2 | 84.4 | 97.2 | – | – | inactive
CG15611 | 1 | 106 | 120 | – | – | inactive
CG15611 | 2 | 176 | 195 | – | – | inactive
pho (pleiohomeotic) | 1 | 112 | 169 | – | – | inactive
CG17724 | 1 | 121 | 190 | – | – | inactive
CG1631 | 1 | 141 | 99.7 | – | – | inactive
Nepl21 (Neprilysin-like 21) | 1 | 103 | 106 | – | – | inactive
Irp-1B (Iron regulatory protein 1B) | 1 | 170 | 137 | – | – | inactive
CG44325 | 1 | 271 | 74.3 | – | – | inactive
CG44325 | 2 | 57.1 | 293 | – | – | active
CG11695 | 1 | 92.7 | 116 | – | – | inactive
CG6674 | 1 | 74 | 118 | – | – | active
koko + Vti1b | 1 | 228 | 245 | – | – | inactive
koko + Vti1b | 2 | 195 | 182 | – | – | inactive
CG9875 | 1 | 83.8 | 169 | – | – | inactive
CG13707 | 1 | 95.8 | 78.6 | – | – | inactive
lectin-46Cb | 1 | 111 | 142 | – | – | inactive
Nagk (N-acetylglucosamine kinase) | 1 | 81.5 | 169 | – | – | inactive
